Values joined by “and” are separate entries in the source; they are usually repeats but may differ in a detail not shown here. Equal entries are not always repeated.
Assay: general procedure: hybrid (solid and solution phase) peptide synthesis; 2-Cl-Trt-Cl resin; TBTU/HOBt with diisopropylethylamine
Settings: whole synthesis; for final purity (method not given): HPLC

Mpa-Har-Gly-Asp-Trp-Pro-Cys-NH2, (SEQ. ID. NO. 7) cyclic (1-7) disulfide
final purity (method not given) (acetate, run 1): >95% and >99.0%
final purity (method not given) (acetate, run 2): >99.0%
final purity (method not given) (trifluoroacetate): >98.5%

pGlu-His-Trp-Ser-Tyr-D-Ser(tBu)-Leu-Arg-Pro-HNEt
final HPLC purity (acetate): >99.0%

pGlu-His-Trp-Ser-Tyr-D-Ser(tBu)-Leu-Arg-Pro-HNNHCONH2
final HPLC purity (acetate): >99.0%

pGlu-His-Trp-Ser-Tyr-D-Trp-Leu-Arg-Pro-Gly-NH2
final HPLC purity (acetate): >99.0%
final HPLC purity (pamoate): >99.0%
